35 molecules from the supplement of paper PMC8104966 can be followed below.

The structures appear in SMILES notation. This is one part of the list. Single values are uncertain here, since repeats match poorly.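 U2OS cells expressing ACE2 were combined with U2OS cells expressing full-length spike, and imaging quantified fusion as the fraction of nuclei displaying both cell types' fluorescent markers. Non-toxic compounds with a fusion z-score under -3, i.e., over three standard deviations below the plate's DMSO wells, are called inhibitory hits.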

The experiment has as its system U2OS ACE2 x SARS-CoV-2 spike co-culture. In words: cell-cell fusion (fraction fused) z-score vs plate DMSO control; higher = more fusion. Conditions: 30 µM; 5 h; toxicity class: non-toxic, passed QC.
For `O=C1/C(=C/c2ccsc2)CC/C1=C\c1cccs1`, the “cell-cell fusion (z-score)” value was inactive: 1.26.
Regarding `CCOC(=O)[C@H](C)C[C@@H](Cc1ccc(-c2ccccc2)cc1)NC(=O)CCC(=O)O`, the “cell-cell fusion (z-score)” value is inactive: 0.829.
For `CN1CCN(C2=Nc3cc(Cl)ccc3Nc3ccccc32)CC1` [Clozapine], the “cell-cell fusion (z-score)” value is inactive: 1.18.
For the molecule `CCC(=O)O[C@H]1[C@H](O[C@@H]2[C@@H](C)[C@H](O[C@H]3C[C@@](C)(OC)[C@@H](O)[C@H](C)O3)[C@@H](C)C(=O)O[C@H](CC)[C@@](C)(O)[C@H](O)[C@@H](C)C(=O)[C@H](C)C[C@@]2(C)O)O[C@H](C)C[C@@H]1N(C)C.CCCCCCCCCCCCOS(=O)(=O)O`, the “cell-cell fusion (z-score)” value was active: -5.44.
On to `NCC[C@@H](O)C(=O)N[C@@H]1C[C@H](N)[C@@H](O[C@H]2O[C@H](CN)[C@@H](O)[C@H](O)[C@H]2O)[C@H](O)[C@H]1O[C@H]1O[C@H](CO)[C@@H](O)[C@H](N)C1O.O` (stereo not given in full), for which the “cell-cell fusion (z-score)” value is inactive: 2.78.
As for `CC1CCC(C(C)C)C(O)C1` (racemic) [DL-Menthol], the “cell-cell fusion (z-score)” value was inactive: 3.36.
`CN1Cc2c(N)cccc2C(c2ccccc2)C1.O=C(O)/C=C\C(=O)O` (stereo not given): the “cell-cell fusion (z-score)” value is inactive: 1.85.
The result for `CN1Cc2c(N)cccc2C(c2ccccc2)C1.O=C(O)/C=C\C(=O)O` (stereo not given) [Nomifensine maleate] reads inactive: 2.16; that for `Cl.c1ccc2c(CC3=NCCN3)cccc2c1` [Naphazoline hydrochloride], inactive: 1.88.
Consider `CCC1(O)CC2CN(CCc3c([nH]c4ccccc34)[C@@](C(=O)OC)(c3cc4c(cc3OC)N(C=O)C3[C@]45CCN4CC=C[C@@](CC)([C@@H](OC(C)=O)[C@]3(O)C(=O)OC)[C@H]45)C2)C1.O=S(=O)(O)O` (stereo not given in full) [Vincristine sulfate], for which the “cell-cell fusion (z-score)” value was inactive: 1.1.
The result for `CC(NC(=O)c1ccccc1/N=C/c1c(O)ccc2ccccc12)c1ccccc1` (stereo not given) [Sirtinol] reads inactive: 1.13.
Consider `CN(CCN1CCC(OC(=O)Nc2ccccc2-c2ccccc2)CC1)C(=O)c1ccc(CN2CCC(C(N)=O)CC2)cc1` [Revefenacin], for which the “cell-cell fusion (z-score)” value was inactive: 1.62.
Under `O=C(O)c1cc2ccccc2c(Cc2c(O)c(C(=O)O)cc3ccccc23)c1O.OCCOCCN1CCN(C(c2ccccc2)c2ccc(Cl)cc2)CC1` stands inactive: 0.375; under `CCc1ccc(CCOc2ccc(CC3SC(=O)NC3=O)cc2)nc1` (stereo not given) [Pioglitazone (Actos)], inactive: 1.13.
As for `CC(=O)O[C@@]1(C(C)=O)CC[C@H]2[C@@H]3C[C@H](C)C4=CC(=O)CC[C@]4(C)[C@@H]3CC[C@@]21C` [Medroxyprogesterone acetate], the “cell-cell fusion (z-score)” value is inactive: 0.581.
As for `C[C@]12CC[C@H](O)CC1=CC[C@@H]1[C@H]2CC[C@]2(C)C(c3cccnc3)=CC[C@@H]12` [Abiraterone (CB-7598)], the “cell-cell fusion (z-score)” value is inactive: 2.12.
With `CC(C)CCCC(C)C1CCC2C3CC[C@H]4CC(=O)CC[C@]4(C)C3CC[C@]12C` (stereo not given in full), the “cell-cell fusion (z-score)” value was inactive: 1.79.
The result for `CC(C)c1ccc(COC(=O)N2CCC[C@@H](c3cccc(OC(C)(C)C(=O)O)c3)C2)cc1` reads inactive: 3.43; that for `C[C@@]1(c2nc3c(C(N)=O)cccc3[nH]2)CCCN1` [ABT-888 (Veliparib)], inactive: 1.51.
The result for `COc1cc2c(N3CCN(C(=O)Nc4ccc(OC(C)C)cc4)CC3)ncnc2cc1OCCCN1CCCCC1` [Tandutinib (MLN518)] reads inactive: 3.05; that for `Nc1nc2c(ncn2COC(CO)CO)c(=O)[nH]1` [Ganciclovir], inactive: 3.29.
As to `Nc1nc2c(ncn2COC(CO)CO)c(=O)[nH]1`, the “cell-cell fusion (z-score)” value was inactive: 1.3.
The result for `OC[C@H]1O[C@@H](O[C@@H]2[C@@H](CO)O[C@](O)(CO)[C@H]2O)[C@H](O)[C@@H](O)[C@H]1O` reads inactive: 0.0812.
Turning to `COc1ccc2[nH]cc(CCNC(C)=O)c2c1` [Melatonin], the “cell-cell fusion (z-score)” value was inactive: 2.32.
The result for `COc1ccc2[nH]cc(CCNC(C)=O)c2c1` reads inactive: 2.42; that for `CNCCC(Oc1ccc(C(F)(F)F)cc1)c1ccccc1.Cl` (stereo not given) [Fluoxetine hydrochloride], active: -4.6.
The result for `Cl.NCCNS(=O)(=O)c1cccc2c(Cl)cccc12` [A3 hydrochloride] reads inactive: -0.863; that for `COc1c2occc2c(OC)c2c(=O)cc(C)oc12`, inactive: 1.52.
The result for `CC1=C2C(=CO[C@H](C)[C@H]2C)C(O)=C(C(=O)O)C1=O` reads inactive: 2.17; that for `CN(C)c1nc(N(C)C)nc(N(C)C)n1` [Altretamine], inactive: 2.52.
Regarding `OCCN(CCO)c1nc(N2CCCCC2)c2nc(N(CCO)CCO)nc(N3CCCCC3)c2n1` [Dypyridamole], the “cell-cell fusion (z-score)” value was inactive: 2.18.
On to `O=C(Oc1ccc([N+](=O)[O-])cc1)N1CCC(C(O)(c2ccc3c(c2)OCO3)c2ccc3c(c2)OCO3)CC1`, for which the “cell-cell fusion (z-score)” value was inactive: 2.55.
The result for `CCc1ccc2c(O)c3c(cc2c1C(=O)OC)C(=O)c1c(O)ccc(O)c1C3=O` reads inactive: 2.2; that for `CC(NCCc1ccc(O)cc1)C(O)c1ccc(O)cc1.Cl` (stereo not given), inactive: -0.441; that for `Cl.NCCc1c[nH]c2ccccc12` [Tryptamine hydrochloride], inactive: 1.49.
